# Measured values taken from PMC8276135.
# No constants are given. Whether binding was seen depends on the method and setting. Binding seen in cells or lysates may run through a third protein. Some binding calls cover weakened binding; strength is not graded here. For some of these results: Where a sequence is shown, tags or fusion partners need not be part of it.
# B1: Nesprin3 (protein, UniProt Q6ZMZ3 1-975)
# chain: MTQQPQDDFDRSVEDAQAWMKAVQDQLQVNDNTQGPRAALEARLWETEKICQLEPEGRVRVDLVLRMAEALLACCPGDQKPGILARLKDIKAQWEETVTYMTHCHSRIEWVWLHWSEYLLARDEFYRWFQKMMVTLEPHIELQLGLKEKQWQLSHAQVLLHNVDNQAVLLDRLLEEAASLFNRIGDPSVDEDAQKRMKAEYDAVKAKAQKRVDLLEQVAREHEEYQAGVDEFQLWLKAVVEKVNGCLGRNCKLPITQRLSTLQDIAKDFPRGEESLETLEEQSAGVIRNTSPLGAEKITGELEEMRKVLEKLRALWEEEEERLRGLLRSRGAWEQQIKQLEAELSEFRMVLQRLAQEGLQPAAKAGTEDELVAHWRRYSATRAALASEEPRVDRLQAQLKELIVFPHNLKPLSDSVIATIQEYQSLKVKSARLRNAAAVELWQHFQRPLQDLQLWKALAQRLLEVTASLPDLPSLHTFLPQIEAALMESSRLKELLTMLQLKKDLLIGIFGQERATALLEQVAGSMRDRDLLHNSLLQRKSKLQSLLAQHKDFGAAFEPLQRKLLDLQVRVQAEKGLQRDLPGKQAQLSRLQGLQEEGLDLGAQMEAARPLVQENPNHQHKMDQLSSDFQALQRSLEDLVDRCRQSVQEHCTFSHQLLELRQWIVVTTQKLEAHRGEAGPGDAESQEAEFERLVAEFPEKEAQLSLVEAQGWLVMEKSSPEGAAVVQEELRELAESWRALRLLEESLLSLIRNWHLQRMEVDSGKKMVFTNNIPKSGFLINPMDPIPRHRRRANLLQEEEGSHEDFSQLLRNFGQWLQVENSKLVRIIAMRTSTAEDLRTRKSKLQELEARVPEGQHLFENLLRLGPARGTSDELEDLRYQWMLYKSKLKDSGHLLTQSSPGEPTGFQKTRRWRGLGSLFRRACCVALPLQLLLLLFLLLLFLLPIREEDRSCTLANNFARSFTLMLRYNGPPPT
# B2: SUN5-Flag (protein, UniProt Q8TC36 1-379)
# chain: MPRSSRSPGDPGALLEDVAHNPRPRRIAQRGRNTSRMAEDTSPNMNDNILLPVRNNDQALGLTQCMLGCVSWFTCFACSLRTQAQQVLFNTCRCKLLCQKLMEKTGILLLCAFGFWMFSIHLPSKMKVWQDDSINGPLQSLRLYQEKVRHHSGEIQDLRGSMNQLIAKLQEMEAMSDEQKMAQKIMKMIHGDYIEKPDFALKSIGASIDFEHTSVTYNHEKAHSYWNWIQLWNYAQPPDVILEPNVTPGNCWAFEGDRGQVTIQLAQKVYLSNLTLQHIPKTISLSGSLDTAPKDFVIYGMEGSPKEEVFLGAFQFQPENIIQMFPLQNQPARAFSAVKVKISSNWGNPGFTCLYRVRVHGSVAPPREQPHQNPYPKRD
# B3: Nesprin3 (protein, UniProt Q4FZC9 1-975)
# chain: MTQQPQEDFERSVEDAQAWMKVIQEQLQVNDNTKGPRAALEARLRETEKICQLESEGMVKVELVLRAAEALLATCQEGQKPEILARLRDIKSQWEETVTYMTHCHSRIEWVWLHWSEYLLAQDEFYRWFQKMVVALEPPVELQLGLKEKQWQLSHAQVLLHNVDNQAVLLDRLLEEAGSLFSRIGDPSVDEDAQKRMKAEYDAVKARAQRRVDLLAQVAQDHEQYREDVNEFQLWLKAVVEKVHSCLGRNCKLATELRLSTLQDIAKDFPRGEESLKRLEEQAVGVIQNTSPLGAEKISGELEEMRGVLEKLRVLWKEEEGRLRGLLQSRGDCEQQIQQLEAELGDFKKSLQRLAQEGLEPTVKTATEDELVAQWRLFSGTRAALASEEPRVDRLQTQLKKLVTFPDLQSLSDSVVATIQEYQSMKGKNTRLHNATRAELWQRFQRPLNDLQLWKALAQRLLDITASLPDLASIHTFLPQIEAALTESSRLKEQLAMLQLKTDLLGSIFGQERAATLLEQVTSSVRDRDLLHNSLLQRKSKLQSLLVQHKDFGVAFDPLNRKLLDLQARIQAEKGLPRDLPGKQVQLLRLQGLQEEGLDLGTQIEAVRPLAHGNSKHQQKVDQISCDQQALQRSLEDLVDRCQQNVREHCTFSHRLSELQLWITMATQTLESHQGDVRLWDAESQEAGLETLLSEIPEKEVQVSLLQALGQLVMKKSSPEGATMVQEELRKLMESWQALRLLEENMLSLMRNQQLQRTEVDTGKKQVFTNNIPKAGFLINPQDPIPRRQHGANPLEGHDLPEDHPQLLRDFEQWLQAENSKLRRIITMRVATAKDLRTREVKLQELEARIPEGQHLFENLLRLRPARDPSNELEDLRYRWMLYKSKLKDSGHLLTESSPGELTAFQKSRRQKRWSPCSLLQKACRVALPLQLLLLLFLLLLFLLPAGEEERSCALANNFARSFALMLRYNGPPPT
# B4: Sun5 (protein, UniProt Q9DA32 1-373)
# chain: MPRTRNIGALCTLPEDTTHSGRPRRGVQRSYISRMAEPAPANMNDPLLLPLRMNTPGLSLVQILLGYMSWLTYLACFLRTQTQQVFLNTCRCKLFCQKVMEKMGLLVLCVFGFWMFSMHLPSKVEVWQDDSINGPLQSLRMYQEKVRHHTGEIQDLRGSMNQLIAKLQKMEAISDEQKMAQKIMKMIQGDYIEKPDFALKSIGASIDFEHTSATYNHDKARSYWNWIRLWNYAQPPDVILEPNVTPGNCWAFASDRGQVTIRLAQKVYLSNITLQHIPKTISLSGSPDTAPKDIVIYGLESLPREEVFLGAFQFQPENVIQMFQLQNLPPRSFAAVKVKISSNWGNPRFTCMYRVRVHGSVTPPKDSHLEPLS
# Tests used:
# SUN5-Flag = biological target: T1, SUN5-Flag (UniProt Q8TC36); experiment: co-IP; lysate of HepG2 cells stably expressing SUN5-Flag (IP lysis solution with phosphatase inhibitors); 8 ug antibody (anti-Flag or anti-Nesprin3) or mock IgG overnight at 4°C, Protein A/G magnetic beads, RIPA washes, acid elution, western blot
# T1 sequence: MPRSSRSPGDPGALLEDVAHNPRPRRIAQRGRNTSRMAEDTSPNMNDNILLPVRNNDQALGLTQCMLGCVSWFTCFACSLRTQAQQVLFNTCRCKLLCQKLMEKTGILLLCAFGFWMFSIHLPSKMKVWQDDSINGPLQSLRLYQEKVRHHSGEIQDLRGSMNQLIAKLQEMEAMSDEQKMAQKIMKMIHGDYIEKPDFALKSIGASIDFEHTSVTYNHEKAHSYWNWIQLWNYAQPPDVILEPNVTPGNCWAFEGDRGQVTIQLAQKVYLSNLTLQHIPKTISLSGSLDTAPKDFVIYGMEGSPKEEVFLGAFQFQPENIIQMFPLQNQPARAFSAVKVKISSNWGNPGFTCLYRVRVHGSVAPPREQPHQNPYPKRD
# [1] = biological target: T2, Nesprin3 (human (endogenous in HepG2)) (UniProt Q6ZMZ3); experiment: as above
# T2 sequence: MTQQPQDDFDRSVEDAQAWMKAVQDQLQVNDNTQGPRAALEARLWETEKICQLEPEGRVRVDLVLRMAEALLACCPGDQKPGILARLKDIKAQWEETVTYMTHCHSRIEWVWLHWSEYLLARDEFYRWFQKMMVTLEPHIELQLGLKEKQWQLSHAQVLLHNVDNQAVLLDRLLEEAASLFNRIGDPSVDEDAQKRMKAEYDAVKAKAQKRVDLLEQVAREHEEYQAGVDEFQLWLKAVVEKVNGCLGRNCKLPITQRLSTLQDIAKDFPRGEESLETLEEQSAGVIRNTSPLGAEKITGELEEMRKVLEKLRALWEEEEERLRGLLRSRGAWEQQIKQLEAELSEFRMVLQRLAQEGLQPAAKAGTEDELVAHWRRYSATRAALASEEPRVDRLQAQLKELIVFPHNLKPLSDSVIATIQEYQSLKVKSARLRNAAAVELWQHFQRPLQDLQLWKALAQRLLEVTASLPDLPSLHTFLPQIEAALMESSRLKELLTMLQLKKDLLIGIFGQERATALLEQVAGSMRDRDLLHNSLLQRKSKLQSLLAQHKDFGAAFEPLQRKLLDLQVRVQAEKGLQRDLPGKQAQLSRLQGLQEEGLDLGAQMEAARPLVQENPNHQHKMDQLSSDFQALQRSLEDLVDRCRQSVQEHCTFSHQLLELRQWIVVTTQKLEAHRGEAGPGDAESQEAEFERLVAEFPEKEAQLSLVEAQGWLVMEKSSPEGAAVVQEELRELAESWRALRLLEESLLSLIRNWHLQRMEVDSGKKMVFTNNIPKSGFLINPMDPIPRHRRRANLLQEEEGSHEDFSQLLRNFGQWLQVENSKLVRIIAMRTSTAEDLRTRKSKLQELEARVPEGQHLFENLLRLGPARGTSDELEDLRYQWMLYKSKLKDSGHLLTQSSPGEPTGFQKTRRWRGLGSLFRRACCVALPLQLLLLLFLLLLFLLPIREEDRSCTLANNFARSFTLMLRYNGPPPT
# [2] = biological target: T3, Sun5 (mouse (endogenous in testis)) (UniProt Q9DA32); experiment: co-IP; lysate of WT mouse testicular tissue milled with liquid nitrogen (IP lysis solution with phosphatase inhibitors); 8 ug Sun5 or Nesprin3 antibody or mock IgG overnight at 4°C, Protein A/G magnetic beads, RIPA washes, acid elution, western blot
# T3 sequence: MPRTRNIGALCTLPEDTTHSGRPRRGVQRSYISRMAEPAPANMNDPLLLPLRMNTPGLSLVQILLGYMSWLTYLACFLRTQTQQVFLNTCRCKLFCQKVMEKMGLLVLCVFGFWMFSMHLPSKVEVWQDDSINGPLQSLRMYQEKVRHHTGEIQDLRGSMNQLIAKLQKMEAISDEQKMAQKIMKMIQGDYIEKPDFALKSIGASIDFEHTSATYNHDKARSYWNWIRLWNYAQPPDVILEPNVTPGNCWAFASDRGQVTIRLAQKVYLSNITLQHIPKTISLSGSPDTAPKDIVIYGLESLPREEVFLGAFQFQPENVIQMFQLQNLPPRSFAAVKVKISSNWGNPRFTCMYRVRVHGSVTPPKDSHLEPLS
# [3] = biological target: T4, Nesprin3 (mouse (endogenous in testis)) (UniProt Q4FZC9); experiment: as above
# T4 sequence: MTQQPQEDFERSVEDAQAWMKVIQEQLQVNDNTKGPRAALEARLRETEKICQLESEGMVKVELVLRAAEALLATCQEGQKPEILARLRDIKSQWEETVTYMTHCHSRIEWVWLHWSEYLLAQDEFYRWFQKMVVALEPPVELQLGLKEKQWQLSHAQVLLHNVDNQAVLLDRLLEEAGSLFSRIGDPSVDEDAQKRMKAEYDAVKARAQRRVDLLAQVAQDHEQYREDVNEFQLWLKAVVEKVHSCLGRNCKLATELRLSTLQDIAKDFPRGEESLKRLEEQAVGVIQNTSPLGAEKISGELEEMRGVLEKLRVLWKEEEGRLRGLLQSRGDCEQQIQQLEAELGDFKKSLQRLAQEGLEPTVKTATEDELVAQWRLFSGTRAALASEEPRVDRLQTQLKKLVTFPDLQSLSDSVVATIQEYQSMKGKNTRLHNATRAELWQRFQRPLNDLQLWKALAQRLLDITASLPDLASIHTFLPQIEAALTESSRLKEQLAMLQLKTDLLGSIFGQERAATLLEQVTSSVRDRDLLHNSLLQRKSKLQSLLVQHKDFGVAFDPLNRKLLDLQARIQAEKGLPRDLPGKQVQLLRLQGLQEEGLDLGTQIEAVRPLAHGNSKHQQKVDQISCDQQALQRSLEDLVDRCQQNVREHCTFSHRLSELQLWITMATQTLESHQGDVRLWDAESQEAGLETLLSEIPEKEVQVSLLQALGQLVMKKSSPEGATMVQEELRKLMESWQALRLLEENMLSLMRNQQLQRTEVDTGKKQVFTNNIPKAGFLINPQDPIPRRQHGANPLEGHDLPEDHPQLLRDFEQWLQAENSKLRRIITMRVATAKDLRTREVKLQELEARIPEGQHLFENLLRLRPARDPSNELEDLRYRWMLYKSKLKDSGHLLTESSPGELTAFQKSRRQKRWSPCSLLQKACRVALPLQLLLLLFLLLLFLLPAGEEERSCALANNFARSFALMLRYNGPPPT
binder,measurement,setting,value
B1,binding,SUN5-Flag,binds
B2,binding,[1],binds
B3,binding,[2],binds
B4,binding,[3],binds
